From patent publication US6034058A (priority 1998, dated 2000)

Experiment: general procedure: solution-phase peptide synthesis; DCC (with NMM or DMAP)

## N-Benzyloxycarbonyl-L-glutaminyl-didemnin A
Coupling step
  step yield: 65%

## L-glutaminyl-L-alaninyl-didemnin A
Late stage modification step, cyclic, sequence written open
  step yield: 87%

## N-Benzyloxycarbonyl-L-glutaminyl-L-[alaninyl^9 ]didemnin B
Coupling step
  step yield: 62%

## bis-[(benzyloxycarbonyl)glutaminyl]-L-[Alaninyl^9 ]-didemnin B
Coupling step
  step yield: 20%

## N-Benzyloxycarbonyl-L-glutaminyl-L-alaninyl-didemnin A
Coupling step
  step yield: 60%

## didemnin M
Late stage modification step
  step yield: 90%
